Binding data for one substance are collected here from PMC9663433.

By UniProt entry, the sequences of proteins in these tests, tags left out. Residues count along the entry.
UniProt Q9NZQ7, residues 19-290: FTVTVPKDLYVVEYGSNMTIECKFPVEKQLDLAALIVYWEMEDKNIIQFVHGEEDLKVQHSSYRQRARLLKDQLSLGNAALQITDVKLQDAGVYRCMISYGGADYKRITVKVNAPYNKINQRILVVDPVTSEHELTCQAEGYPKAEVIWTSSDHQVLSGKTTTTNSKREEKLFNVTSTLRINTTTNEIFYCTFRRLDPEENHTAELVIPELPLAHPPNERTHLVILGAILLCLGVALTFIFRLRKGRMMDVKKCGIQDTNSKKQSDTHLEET
UniProt Q7Z6Z7: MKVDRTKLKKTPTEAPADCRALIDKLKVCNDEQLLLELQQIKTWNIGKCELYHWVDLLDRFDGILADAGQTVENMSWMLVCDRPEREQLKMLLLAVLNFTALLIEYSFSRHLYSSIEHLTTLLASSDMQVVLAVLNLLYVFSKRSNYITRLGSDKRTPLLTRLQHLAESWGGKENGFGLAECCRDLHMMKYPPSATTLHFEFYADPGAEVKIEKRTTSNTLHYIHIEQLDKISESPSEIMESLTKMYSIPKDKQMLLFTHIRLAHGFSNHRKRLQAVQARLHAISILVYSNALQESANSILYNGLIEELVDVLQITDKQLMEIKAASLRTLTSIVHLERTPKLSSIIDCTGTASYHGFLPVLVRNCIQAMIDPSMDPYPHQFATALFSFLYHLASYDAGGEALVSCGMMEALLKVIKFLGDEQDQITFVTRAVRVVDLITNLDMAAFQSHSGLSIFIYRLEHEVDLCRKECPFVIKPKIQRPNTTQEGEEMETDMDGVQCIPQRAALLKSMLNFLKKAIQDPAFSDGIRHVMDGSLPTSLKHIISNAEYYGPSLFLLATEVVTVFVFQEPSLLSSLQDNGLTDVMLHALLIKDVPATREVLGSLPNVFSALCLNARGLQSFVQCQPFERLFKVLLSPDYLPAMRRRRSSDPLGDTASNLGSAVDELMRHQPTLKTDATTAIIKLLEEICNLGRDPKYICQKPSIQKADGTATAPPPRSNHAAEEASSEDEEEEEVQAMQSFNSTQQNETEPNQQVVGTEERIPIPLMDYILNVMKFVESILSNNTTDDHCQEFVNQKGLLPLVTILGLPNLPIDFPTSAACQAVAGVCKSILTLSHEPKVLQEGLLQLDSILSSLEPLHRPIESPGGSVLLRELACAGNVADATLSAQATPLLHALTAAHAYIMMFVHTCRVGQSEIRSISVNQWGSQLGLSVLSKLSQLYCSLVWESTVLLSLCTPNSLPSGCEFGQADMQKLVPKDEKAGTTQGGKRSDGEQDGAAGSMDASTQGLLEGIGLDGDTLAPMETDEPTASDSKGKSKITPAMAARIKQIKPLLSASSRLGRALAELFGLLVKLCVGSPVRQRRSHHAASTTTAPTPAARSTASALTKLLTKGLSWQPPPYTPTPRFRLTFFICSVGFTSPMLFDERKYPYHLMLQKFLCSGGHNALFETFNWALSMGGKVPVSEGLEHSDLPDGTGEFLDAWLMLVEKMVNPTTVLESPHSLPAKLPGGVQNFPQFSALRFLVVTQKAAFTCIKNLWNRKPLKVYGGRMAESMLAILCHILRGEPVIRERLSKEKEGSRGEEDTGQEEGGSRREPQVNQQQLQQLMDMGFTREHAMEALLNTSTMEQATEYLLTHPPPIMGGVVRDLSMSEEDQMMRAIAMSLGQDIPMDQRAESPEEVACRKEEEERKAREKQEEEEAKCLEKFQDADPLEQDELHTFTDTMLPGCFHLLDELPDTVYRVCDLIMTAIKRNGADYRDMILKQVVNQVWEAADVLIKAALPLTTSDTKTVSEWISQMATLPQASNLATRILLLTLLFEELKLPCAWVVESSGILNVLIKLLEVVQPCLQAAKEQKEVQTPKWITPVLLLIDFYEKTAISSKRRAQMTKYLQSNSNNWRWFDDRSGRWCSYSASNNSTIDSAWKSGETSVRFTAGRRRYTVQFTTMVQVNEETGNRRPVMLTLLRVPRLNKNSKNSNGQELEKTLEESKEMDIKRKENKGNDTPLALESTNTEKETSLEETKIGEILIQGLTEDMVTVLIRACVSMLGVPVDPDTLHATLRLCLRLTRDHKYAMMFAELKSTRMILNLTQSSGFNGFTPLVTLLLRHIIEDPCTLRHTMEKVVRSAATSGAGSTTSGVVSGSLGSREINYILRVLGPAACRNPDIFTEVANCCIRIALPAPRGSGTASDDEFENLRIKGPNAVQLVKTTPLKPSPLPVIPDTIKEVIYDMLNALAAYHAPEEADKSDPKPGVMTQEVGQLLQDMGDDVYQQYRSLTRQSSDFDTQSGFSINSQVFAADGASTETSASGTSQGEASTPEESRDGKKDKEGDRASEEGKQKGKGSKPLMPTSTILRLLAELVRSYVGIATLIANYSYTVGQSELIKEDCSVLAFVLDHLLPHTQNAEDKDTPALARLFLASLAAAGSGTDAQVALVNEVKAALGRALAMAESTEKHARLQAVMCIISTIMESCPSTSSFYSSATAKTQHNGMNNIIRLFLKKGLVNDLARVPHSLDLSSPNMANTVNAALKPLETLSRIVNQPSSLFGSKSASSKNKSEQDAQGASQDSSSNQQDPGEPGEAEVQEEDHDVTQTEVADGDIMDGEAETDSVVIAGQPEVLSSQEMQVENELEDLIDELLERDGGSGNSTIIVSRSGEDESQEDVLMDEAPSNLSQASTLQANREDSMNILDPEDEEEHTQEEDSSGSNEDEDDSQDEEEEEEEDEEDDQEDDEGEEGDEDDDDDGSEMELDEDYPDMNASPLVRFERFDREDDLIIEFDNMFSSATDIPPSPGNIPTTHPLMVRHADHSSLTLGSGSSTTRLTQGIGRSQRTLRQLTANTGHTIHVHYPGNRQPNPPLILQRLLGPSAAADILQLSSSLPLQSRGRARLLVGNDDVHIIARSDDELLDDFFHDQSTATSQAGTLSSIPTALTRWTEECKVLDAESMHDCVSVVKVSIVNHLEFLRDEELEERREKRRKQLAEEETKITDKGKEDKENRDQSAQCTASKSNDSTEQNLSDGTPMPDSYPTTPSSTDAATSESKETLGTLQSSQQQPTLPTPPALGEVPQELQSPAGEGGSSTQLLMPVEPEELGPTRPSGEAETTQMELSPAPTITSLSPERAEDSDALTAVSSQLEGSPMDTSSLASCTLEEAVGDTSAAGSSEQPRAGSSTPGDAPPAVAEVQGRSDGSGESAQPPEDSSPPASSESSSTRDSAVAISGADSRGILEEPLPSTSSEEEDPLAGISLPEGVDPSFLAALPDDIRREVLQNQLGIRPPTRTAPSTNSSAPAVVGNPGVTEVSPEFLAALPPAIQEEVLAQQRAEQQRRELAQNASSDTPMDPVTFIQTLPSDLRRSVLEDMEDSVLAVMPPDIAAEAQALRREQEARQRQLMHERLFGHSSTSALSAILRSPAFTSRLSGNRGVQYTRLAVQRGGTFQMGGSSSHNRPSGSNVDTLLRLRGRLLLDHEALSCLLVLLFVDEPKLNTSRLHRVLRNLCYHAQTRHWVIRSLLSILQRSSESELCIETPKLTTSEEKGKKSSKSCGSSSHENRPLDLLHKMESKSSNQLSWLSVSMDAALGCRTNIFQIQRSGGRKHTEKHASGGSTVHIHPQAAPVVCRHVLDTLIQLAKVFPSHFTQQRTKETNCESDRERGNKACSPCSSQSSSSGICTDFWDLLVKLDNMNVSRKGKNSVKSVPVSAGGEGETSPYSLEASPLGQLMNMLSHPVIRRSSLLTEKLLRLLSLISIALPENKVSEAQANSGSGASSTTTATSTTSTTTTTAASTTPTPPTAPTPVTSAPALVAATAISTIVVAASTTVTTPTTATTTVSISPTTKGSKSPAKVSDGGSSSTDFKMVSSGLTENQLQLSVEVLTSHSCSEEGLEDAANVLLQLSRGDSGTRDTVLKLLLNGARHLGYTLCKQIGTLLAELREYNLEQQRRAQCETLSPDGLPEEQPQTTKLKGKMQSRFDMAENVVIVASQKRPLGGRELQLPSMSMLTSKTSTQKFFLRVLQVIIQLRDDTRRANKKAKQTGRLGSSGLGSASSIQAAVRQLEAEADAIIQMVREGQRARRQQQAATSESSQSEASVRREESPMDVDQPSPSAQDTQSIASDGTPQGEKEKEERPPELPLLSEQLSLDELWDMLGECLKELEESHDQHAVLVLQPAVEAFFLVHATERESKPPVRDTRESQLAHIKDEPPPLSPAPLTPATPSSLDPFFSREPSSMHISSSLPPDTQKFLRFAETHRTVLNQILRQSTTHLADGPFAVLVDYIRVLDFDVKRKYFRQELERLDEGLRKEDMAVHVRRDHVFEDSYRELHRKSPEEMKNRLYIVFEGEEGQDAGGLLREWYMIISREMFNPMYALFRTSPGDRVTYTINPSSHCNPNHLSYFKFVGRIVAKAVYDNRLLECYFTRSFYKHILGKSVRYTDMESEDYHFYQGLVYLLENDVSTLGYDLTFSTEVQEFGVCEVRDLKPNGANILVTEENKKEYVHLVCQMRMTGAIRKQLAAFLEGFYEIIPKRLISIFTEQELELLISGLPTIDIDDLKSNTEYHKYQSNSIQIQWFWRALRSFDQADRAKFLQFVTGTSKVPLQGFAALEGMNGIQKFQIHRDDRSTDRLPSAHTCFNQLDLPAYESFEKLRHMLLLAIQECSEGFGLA

Results are given in words; binding and its absence hold for the method and conditions named. In cells and extracts the contact can be indirect. Here binding means that the protein was enriched with, or labelled near, the bait; the list need not be complete.

The target in the assay is PD-L1-Flag (human) (UniProt Q9NZQ7). As to the kind of experiment: affinity purification with mass spectrometry; lysate of HEK-293T cells with stable PD-L1-Flag or Vector-Flag in polysome buffer (25 mM Tris-HCl pH 7.5, 150 mM KCl, 0.5 mM DTT, 0.5% NP-40); Flag-tag magnetic beads 4 h at 4 °C; eluted with 3X Flag peptide.

For the substance “endogenous HUWE1 (HEK-293T cells) (from UniProt Q7Z6Z7 1-4374) (enzyme)”, the binding entry is on record as “binds”.
